Assay results: publication PMC7613639, “Broad-spectrum chemicals block ROS detoxification to prevent plant fungal invasion” (Current biology : CB, 2022)

Protein sequences, listed by entry. Tags and fused reporters are not part of them.
UniProt A0A384J919: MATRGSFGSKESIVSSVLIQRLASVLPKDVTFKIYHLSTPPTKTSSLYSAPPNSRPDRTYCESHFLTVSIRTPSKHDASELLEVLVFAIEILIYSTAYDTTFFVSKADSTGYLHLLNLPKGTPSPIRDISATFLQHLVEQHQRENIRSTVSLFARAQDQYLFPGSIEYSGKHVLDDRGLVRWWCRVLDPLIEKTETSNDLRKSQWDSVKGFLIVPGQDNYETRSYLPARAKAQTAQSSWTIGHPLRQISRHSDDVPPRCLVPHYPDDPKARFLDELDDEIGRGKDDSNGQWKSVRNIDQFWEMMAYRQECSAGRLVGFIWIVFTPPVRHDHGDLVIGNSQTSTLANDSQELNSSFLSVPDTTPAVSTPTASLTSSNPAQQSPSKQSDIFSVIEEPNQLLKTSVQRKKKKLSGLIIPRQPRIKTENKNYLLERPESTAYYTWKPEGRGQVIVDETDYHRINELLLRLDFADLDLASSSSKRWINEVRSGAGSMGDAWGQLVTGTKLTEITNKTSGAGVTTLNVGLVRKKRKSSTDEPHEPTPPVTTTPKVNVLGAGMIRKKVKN

Target: BcTol1-GFP (B. cinerea (strain B05.10))
Experiment: affinity purification with mass spectrometry; coIP from mycelia of the BcTol1-GFP transformant with anti-GFP agarose, trypsin digest, LC-MS/MS

BcRtt109, endogenous (from UniProt A0A384J919 1-563) (enzyme)
binding: binds

Results are given in words; binding and its absence hold for the method and conditions named. Binding seen in cells or lysates may run through a third protein. A yes stands for co-enrichment or nearness to the bait. Other partners may have been found.
